Test results published in PubChem BioAssay AID2685 (National Center for Advancing Translational Sciences (NCATS), 2010).
This is one part of the list. Further columns of the screen follow, without active or inactive calls. Compounds called inactive in the main read-out are mostly missing here. The note in brackets gives the kind of curve behind each potency; many fits are weak.

Assay: qHTS Assay for Lipid Storage Modulators in Drosophila S3 Cells;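 on cell number change: cells counted by Cell Tracker Red CMTPX staining in the red channel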
Settings: BODIPY lipid droplet fluorescence, 18-24 h; for cell number change: measured here: cell count max response, cells fed with added oleic acid
Method in brief: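 Drosophila S3 cells loaded with oleic acid (400 uM, as added) and compounds at several concentrations; lipid droplets imaged by 488-nm laser-scanning cytometry, 500–530 nm intensity and object ratio to cell channel. Percent activity normalized to 20 uM Triacsin C.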

[1] = measured here: lipid fluorescence (Fed channel) AC50, cells fed with added oleic acid
[2] = measured here: cell number channel AC50, cells fed with added oleic acid

Compound	AC50 [1]	cell number change [%]	AC50 [2]
CN(CCCNS(=O)(=O)c1cccc2cccnc12)Cc1ccccc1	0.517 µM [rising, full curve, poor fit]		
Cc1cccc(OCC(=O)NCC(=O)N/N=C/c2ccccc2)c1		3.6	
Cn1cc(C(=O)C(=O)NC2CCCCC2)c2ccccc21	5.17 µM [rising, partial curve]	25.4	
COC(=O)CSc1nnc(CCc2ccccc2)n1C		-0.549	
CN(c1cccc(NC(=O)c2ccc(C(C)(C)C)cc2)c1)S(C)(=O)=O	18.4 µM [falling, single point]	-9.23	
Cc1ccc(C(=O)NCCC(=O)N2CCCC2)cc1		-0.275	
COc1ccc(Cc2nnc(NC(=O)C3CC(=O)N(c4ccccc4)C3)s2)cc1OC (centres undefined)	1.26 µM [rising, full curve, poor fit]	1.32	
CCOc1cc(/C=N/Nc2cc(C)nc3ccc(C)cc23)ccc1O	2.59 µM [rising, single point]		
Cc1occc1C(=O)NNC(=S)NCc1ccccc1	0.146 µM [rising, full curve, poor fit]	16.7	
Cc1cc(OCC(=O)OCC(=O)N2c3ccccc3NC(=O)C2(C)C)ccc1Cl	1.03 µM [rising, full curve]	-6.81	1.03 µM [rising, full curve]
COc1cc(NC(=O)C2CC2)c(C(=O)O)cc1OC	6.51 µM [rising, single point]	4.24	
CCCc1nnc(SCC(=O)Nc2nnc(CC)s2)n1CC1CCCO1 (centres undefined)		6.25	
CC(/C=N/NC(=O)CN1CCN(Cc2ccc(Cl)cc2)CC1)=C\c1ccco1	0.58 µM [falling, full curve, poor fit]	14.9	
CCn1c(NCc2cc(OC)c(OC)c(OC)c2)nc2ccccc21	0.58 µM [rising, single point]	-19	
CCN1CCN(CCCN(Cc2ccco2)C(=S)Nc2cccc(Cl)c2C)CC1	0.82 µM [falling, full curve, poor fit]	-18.7	0.82 µM [falling, full curve, poor fit]
CCOc1cc(C(=O)Nc2nnc(CC)s2)ccc1OCC(=O)N1CCOCC1	7.31 µM [rising, partial curve, poor fit]	-0.883	
CCc1ccc(N2CCN(CCNC(=O)Nc3ccc(OC)cc3)CC2)cc1		-20.1	
COc1cc(-c2nnc(-c3ccc(N4CCOCC4)cc3)o2)cc(OC)c1OC	8.2 µM [falling, partial curve, poor fit]	-30.7	2.06 µM [falling, full curve, poor fit]
Cc1ccc(S(=O)(=O)NC(C)(C)CN2CCC(Cc3ccccc3)CC2)cc1	32.6 µM [falling, single point]	-34	8.2 µM [falling, partial curve]

Compound	AC50 [1]	cell number change [%]	AC50 [2]
Cc1cc(C)n2c(Nc3ccc4c(c3)OCCO4)c(-c3ccco3)nc2n1	0.58 µM [rising, full curve]	7.98	
Cc1cccc(NC(=O)CN(C)S(=O)(=O)c2cccc3cccnc23)c1C	29.1 µM [rising, partial curve, poor fit]	10	
Cc1cccc(-c2nc(=S)c3c(o2)CCCC3)c1	6.51 µM [rising, partial curve, poor fit]	28.4	
COC(=O)c1ccc(Cl)c(NC(=O)c2ccc(-c3ccccc3)cc2)c1	18.4 µM [falling, partial curve, poor fit]	-37.4	25.9 µM [falling, single point]
COc1ccc(OC)c(S(=O)(=O)Nc2cccc(-c3ccc(N4CCCCCC4)nn3)c2)c1	6.51 µM [falling, single point]	-20	
Cc1ccc(CNC(=O)c2cn(C)c3ccc(S(=O)(=O)N4CCOCC4)cc3c2=O)cc1	6.51 µM [falling, single point]	-14.7	
CCCCCCN(C(=O)CCl)c1ccccc1	4.11 µM [rising, partial curve]	-16.5	
CN(CC(=O)Nc1c(Cl)cccc1Cl)C(=O)c1cccc(-n2cccc2)c1	29.1 µM [falling, single point]	-19.3	
Cc1cc(C)nc(NC(=O)c2ccc(Cl)cc2)n1	29.1 µM [rising, single point]	31.6	0.13 µM [rising, full curve, poor fit]
Cc1ccc(NC(=O)COC(=O)Cn2cnc3c2c(=O)n(C)c(=O)n3C)c(Cl)c1	4.11 µM [rising, single point]	-30.2	32.6 µM [falling, single point]
CC(C)=CCN1CCN(Cc2nc(-c3ccc(F)cc3)cs2)CC1CCO (centres undefined)	0.0731 µM [rising, full curve, poor fit]		
O=C(NCCc1ccncc1)C12CC3CC(CC(C3)C1)C2		-38.7	23.1 µM [falling, partial curve]
CCCCc1nc2cc(C(=O)N(C)C3CCOCC3)ccc2o1	29.1 µM [rising, single point]		
C/C(Cl)=C\Cn1c(Nc2ccccc2)nc2c1c(=O)n(C)c(=O)n2C		54.6	6.51 µM [rising, full curve]
CCCCC/C=C/C1=CC(=O)C[C@H](c2ccc(Cl)cc2)C1		0.123	
CC(c1nc2ccccc2c(=O)[nH]1)N1CCCN(S(=O)(=O)c2ccc(F)cc2)CC1 (centres undefined)	0.164 µM [falling, full curve, poor fit]	7.9	
CSc1ccc(/C=N\NC(=O)COc2ccc(Cl)cc2Br)cc1	0.92 µM [falling, partial curve]	-71	23.1 µM [falling, partial curve, poor fit]
COc1cccc(CNC(=O)CN2C(=O)COc3ccc(S(=O)(=O)N4CCCCCC4)cc32)c1	6.51 µM [rising, single point]	2.66	
N#Cc1ccc(C(=O)OCC(=O)N2CCCC2)cc1		41	25.9 µM [rising, single point]

Sorted by SMILES length (smallest number first): 11 of the compounds above.
Compound	AC50 [1]	cell number change [%]	AC50 [2]
N#Cc1ccc(C(=O)OCC(=O)N2CCCC2)cc1		41	25.9 µM [rising, single point]
CCCCc1nc2cc(C(=O)N(C)C3CCOCC3)ccc2o1	29.1 µM [rising, single point]		
CSc1ccc(/C=N\NC(=O)COc2ccc(Cl)cc2Br)cc1	0.92 µM [falling, partial curve]	-71	23.1 µM [falling, partial curve, poor fit]
CCCCC/C=C/C1=CC(=O)C[C@H](c2ccc(Cl)cc2)C1		0.123	
CC(C)=CCN1CCN(Cc2nc(-c3ccc(F)cc3)cs2)CC1CCO (centres undefined)	0.0731 µM [rising, full curve, poor fit]		
Cc1cc(C)n2c(Nc3ccc4c(c3)OCCO4)c(-c3ccco3)nc2n1	0.58 µM [rising, full curve]	7.98	
C/C(Cl)=C\Cn1c(Nc2ccccc2)nc2c1c(=O)n(C)c(=O)n2C		54.6	6.51 µM [rising, full curve]
CN(CC(=O)Nc1c(Cl)cccc1Cl)C(=O)c1cccc(-n2cccc2)c1	29.1 µM [falling, single point]	-19.3	
Cc1ccc(NC(=O)COC(=O)Cn2cnc3c2c(=O)n(C)c(=O)n3C)c(Cl)c1	4.11 µM [rising, single point]	-30.2	32.6 µM [falling, single point]
Cc1ccc(CNC(=O)c2cn(C)c3ccc(S(=O)(=O)N4CCOCC4)cc3c2=O)cc1	6.51 µM [falling, single point]	-14.7	
COc1cccc(CNC(=O)CN2C(=O)COc3ccc(S(=O)(=O)N4CCCCCC4)cc32)c1	6.51 µM [rising, single point]	2.66	
